Data: the supplement of paper PMC4683952
Counter-ions that a name gives are not always drawn. Hit rate of the full screen: of about 1,200 compounds, about 50 (4%) showed activity. Cut-off read from the data, not from the text of the source: all actives reach 1.3 or more but so do some inactives. This is one part of the list.

Tested on: Lgr5 (MarsCy1-Lgr5-EGFP, U2OS)
Assay: cell-surface Lgr5 expression (SCi1 fluorescence, background-subtracted) relative to WT DMSO (fold of DMSO control); higher = more Lgr5 at the plasma membrane, active = hit call of the paper
Conditions: U2OS MarsCy1-Lgr5-EGFP stable; treatment time: overnight; 16 µM; library: Johns Hopkins Clinical Compound Library

Compound	cell-surface Lgr5 expression
Nc1ccc([As](=O)(O)O)cc1 [p-Arsanilic acid]	inactive: 1.15
CCCCCCCCC(=O)NCc1ccc(O)c(OC)c1 [Nonivamide (Pelargonic acid vanillylamide)]	inactive: 0.888
CCCCCCCCC(=O)NCc1ccc(O)c(OC)c1 [Nonivamide (N-Vanillylnonanamide)]	inactive: 0.81
Oc1ccc2[nH]cc(CCCCN3CC=C(c4ccccc4)CC3)c2c1 [Roxindole Mesylate]	inactive: 1.18
CCOC(=O)CC(SP(=S)(OC)OC)C(=O)OCC (stereo not given) [Malathion]	inactive: 1.11
CC(NC(C)(C)C)C(=O)c1cccc(Cl)c1 (stereo not given)	inactive: 0.727
CN1[C@@H]2C[C@@H](OC(=O)[C@H](CO)c3ccccc3)C[C@H]1[C@@H]1O[C@@H]12 [Scopolamine (-)]	inactive: 0.725
CN1[C@@H]2C[C@@H](OC(=O)[C@H](CO)c3ccccc3)C[C@H]1[C@@H]1O[C@@H]12 [Scopolamine]	inactive: 1.12
CN[C@@H](C)[C@@H](O)c1ccccc1 [Pseudoephedrine HCL (+)]	inactive: 1.33
O=[N+]([O-])C(Br)(CO)CO [Bronopol (2-Bromo-2-nitro-1,3-propanediol)]	inactive: 1.12
[O-][n+]1ccccc1[S-].[O-][n+]1ccccc1[S-].[Zn+2] [Pyrithione zinc (1-Hydroxypyridine-2-Thione Zinc Salt)]	inactive: 0.923
CN1C[C@H](C(=O)N[C@]2(C)O[C@@]3(O)[C@@H]4CCCN4C(=O)[C@H](Cc4ccccc4)N3C2=O)C=C2c3cccc4[nH]cc(c34)C[C@H]21 [Ergotamine D-tartrate]	inactive: 0.554
O=c1n(Cl)c(=O)n(Cl)c(=O)n1Cl [Symclosene (Trichloroisocyanuric acid, 97%)]	inactive: 1
OCCOc1ccccc1 [2-Phenoxyethanol]	inactive: 1.25
CCCC[N+]1(C)[C@@H]2C[C@@H](OC(=O)[C@H](CO)c3ccccc3)C[C@H]1[C@@H]1O[C@@H]12 (stereo partly drawn) [Scopolamine N-butyl bromide (-)]	inactive: 1.15
O=[N+]([O-])[O-].[Ag+] [Silver nitrate]	inactive: 1.16
C[C@]12CCC(=O)C=C1C=C[C@@H]1[C@@H]2CC[C@@]2(C)[C@H]1CC[C@@]2(O)CCC(=O)O [Potassium canrenoate]	inactive: 1.23
CC(C)NC(C)Cc1ccc(I)cc1 (stereo not given) [Iofetamine]	inactive: 0.905
O=c1ccc2cc(O[C@@H]3O[C@H](CO)[C@@H](O)[C@H](O)[C@H]3O)c(O)cc2o1 [Esculin monohydrate]	inactive: 0.863
c1ccc2c(c1)Nc1ccccc1S2 [Phenothiazine]	inactive: 1.04

Compound	cell-surface Lgr5 expression
O=c1c2ccccc2[se]n1-c1ccccc1 [Ebselen]	inactive: 0.821
CC(=O)O[C@H]1C[C@@H]2CC[C@@H]3[C@H](CC[C@@]4(C)[C@H]3C[C@H]([N+]3(C)CCCCC3)[C@@H]4OC(C)=O)[C@@]2(C)C[C@@H]1[N+]1(C)CCCCC1 [Pancuronium bromide]	inactive: 1.08
C[C@]12CC[C@H](O)CC1=CC[C@@H]1[C@@H]2CC[C@]2(C)C(=O)CC[C@@H]12 [Prasterone (DHEA, dehydroepiandrosterone)]	active: 1.33
C[C@]12CC[C@H](O)CC1=CC[C@@H]1[C@@H]2CC[C@]2(C)C(=O)CC[C@@H]12 [Prasterone (dehydroisoandrosterone)]	inactive: 1.09
OB1OO1 [Sodium perborate tetrahydrate]	inactive: 0.895
COc1cc2c(c(OC)c1OC)-c1ccc(OC)c(=O)cc1[C@@H](NC(C)=O)CC2 [Colchicine]	inactive: 1.37
CCN(CC)C(=O)N[C@H]1C[C@@H]2c3cccc4[nH]cc(c34)C[C@H]2N(C)C1 [S(+)-Terguride]	inactive: 1.14
CC1C=CC=CCCC=CC=CC=CC=CC(OC2OC(C)C(O)C(N)C2O)CC2OC(O)(CC(O)C(O)CCC(O)CC(O)CC(O)CC(=O)OC(C)C(C)C1O)CC(O)C2C(=O)O (stereo not given) [Nystatin]	inactive: 0.877
CC[N+]1(C)CCCC(OC(=O)C(O)(c2ccccc2)c2ccccc2)C1 (stereo not given) [Pipenzolate bromide]	inactive: 1.07
c1ccc2c(c1)OCC(C1=NCCN1)O2 (stereo not given) [Idazoxan hydrochloride]	inactive: 1.21
CCCN1CCC[C@@H]2Cc3n[nH]cc3C[C@H]21 [Quinpirole dihydrochloride]	inactive: 1.08
CC(C)c1cccc(C(C)C)c1O [Propofol (2,6-diisopropylphenol)]	inactive: 0.99
Oc1ccc2c3c1O[C@H]1[C@@H](O)CC[C@@]4(O)[C@@H](C2)N(CC2CCC2)CC[C@]314 [Nalbuphine]	inactive: 1.17
COC1=CC(=O)O[C@@H](/C=C/c2ccccc2)C1 [Kavain]	inactive: 1.05
O=C1C2CC=CCC2C(=O)N1SC(Cl)(Cl)Cl (stereo not given) [Captan]	inactive: 1.07
CCCCCCCCCC(=O)O[C@H]1CC[C@H]2[C@@H]3CCC4=CC(=O)CC[C@@H]4[C@H]3CC[C@]12C [Nandrolone decanoate]	inactive: 0.905
COc1cc(C2c3cc4c(cc3C(O)C(CO)C2C(=O)O)OCO4)cc(OC)c1OC.COc1cc(C2c3cc4c(cc3C(O)C(CO)C2C(=O)O)OCO4)cc(OC)c1OC.COc1cc(C2c3cc4c(cc3C(O)C3COC(=O)C23)OCO4)cc(OC)c1OC.COc1cc(C2c3cc4c(cc3C(O)C3COC(=O)C23)OCO4)cc(OC)c1OC (stereo not given) [Podophyllum resin]	active: 1.55
C=C1CC[C@@]2(O)[C@H]3Cc4ccc(O)c5c4[C@@]2(CCN3CC2CC2)[C@H]1O5 [Nalmefene]	inactive: 1.22
CC(N)C(O)c1ccccc1 (stereo not given) [Norephedrine Hydrochloride (Phenylpropanolamine)]	inactive: 1.19
COc1ccccc1OC [Veratrole]	inactive: 0.751

An excerpt from further up, as a working copy:
Compound	cell-surface Lgr5 expression
CN1[C@@H]2C[C@@H](OC(=O)[C@H](CO)c3ccccc3)C[C@H]1[C@@H]1O[C@@H]12 [Scopolamine]	inactive: 1.12
CN[C@@H](C)[C@@H](O)c1ccccc1 [Pseudoephedrine HCL (+)]	inactive: 1.33
O=[N+]([O-])C(Br)(CO)CO [Bronopol (2-Bromo-2-nitro-1,3-propanediol)]	inactive: 1.12
[O-][n+]1ccccc1[S-].[O-][n+]1ccccc1[S-].[Zn+2] [Pyrithione zinc (1-Hydroxypyridine-2-Thione Zinc Salt)]	inactive: 0.923
CN1C[C@H](C(=O)N[C@]2(C)O[C@@]3(O)[C@@H]4CCCN4C(=O)[C@H](Cc4ccccc4)N3C2=O)C=C2c3cccc4[nH]cc(c34)C[C@H]21 [Ergotamine D-tartrate]	inactive: 0.554
O=c1n(Cl)c(=O)n(Cl)c(=O)n1Cl [Symclosene (Trichloroisocyanuric acid, 97%)]	inactive: 1
OCCOc1ccccc1 [2-Phenoxyethanol]	inactive: 1.25
CCCC[N+]1(C)[C@@H]2C[C@@H](OC(=O)[C@H](CO)c3ccccc3)C[C@H]1[C@@H]1O[C@@H]12 (stereo partly drawn) [Scopolamine N-butyl bromide (-)]	inactive: 1.15
